# Reference: US6355611B1 (Merck & Co., Inc., priority 1999, dated 2002)
# Experiment: general procedure: peptide synthesis; EDC with HOAt and/or 2-HOPO, 2,4,6-collidine
# Conditions: sodium salt; for crude HPLC purity / conjugation yield: conjugation step; for crude HPLC purity: HPLC area % (LCAP); for step yield: assay yield
Substance,"crude HPLC purity (piperidinium salt, free acid, run 1) [A %]","crude HPLC purity (piperidinium salt, free acid, run 2) [A %]","conjugation yield (corrected for purity, piperidinium salt, free acid, run 1) [%]","conjugation yield (corrected for purity, piperidinium salt, free acid, run 2) [%]","conjugation yield (uncorrected for purity, piperidinium salt, free acid) [%]",step yield (late stage modification step) [%],"step yield (purification step, piperidinium salt, free acid, run 1) [%]","step yield (purification step, piperidinium salt, free acid, run 2) [%]"
[N-Glutaryl(OFm)-(4-trans-L-Hyp)]-Ala-Ser-Chg-Gln-Ser-Leu-Dox,91.5,89.7,86,90.0,95.6,–,–,–
[N-Glutaryl-(4-trans-L-Hyp)]-Ala-Ser-Chg-Gln-Ser-Leu-Dox Sodium salt,–,–,–,–,–,85,91,94
